# Where “and” joins values, the source holds several entries; their conditions need not be identical. Identical values can stand only once. Counter-ions that a name gives are not always drawn. ± gives the standard deviation of the averaged measurements. This is one part of the list. Baselines shift from plate to plate; read single values as rough.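 Primary human stellate myofibroblasts activated in culture; inactivation shown by regained lipid droplets. Readout: fraction of Hoechst-counted cells exceeding a per-plate Bodipy threshold, duplicate wells, each plate with DMSO negative and nortriptyline positive controls. Hits: control-normalized score beyond the plate's top-tenth-percentile nortriptyline wells, or among its three best wells. Final well concentrations unstated.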
# Test system: primary human hepatic stellate cells (donor 1)
# Experiment: percent Bodipy-positive cells; higher = more lipid droplet accumulation
# Conditions: 48 h
# [1] = library stock concentration: 10 mM
# [2] = library stock concentration: 1 mM
# [3] = library stock concentration: 3.33 mM
# [4] = library stock concentration: 80 uM
# [5] = library stock concentration: 400 uM
# [6] = library stock concentration: 2 mM
smiles,measurement,setting,value
CCCCC(CC)COc1ccc(-c2nc(-c3ccc(OC)cc3)nc(-c3ccc(OCC(CC)CCCC)cc3O)n2)c(O)c1 (stereo not drawn),percent Bodipy-positive cells,[1],43.2 ± 7.9%
CC/C=C\C/C=C\C/C=C\C/C=C\C/C=C\C/C=C\CCC(=O)O [Docosahexaenoic acid(22:6 n-3)],percent Bodipy-positive cells,[2],12.7 ± 7.5%
CC/C=C\C/C=C\C/C=C\C/C=C\C/C=C\C/C=C\CCC(=O)O [Docosahexaenoic Acid],percent Bodipy-positive cells,[2],7.04 ± 1.8%
CS(=O)(=O)CCNCc1nc(-c2ccc3ncnc(Nc4ccc(OCc5cccc(F)c5)c(Cl)c4)c3c2)cs1.Cl.Cl,percent Bodipy-positive cells,[1],82.9 ± 4.1%
Cc1noc(-c2ccc(CSCCC(=O)O)cc2)c1NC(=O)OC(C)c1ccccc1Cl (stereo not drawn),percent Bodipy-positive cells,[3],5.58 ± 1.3%
same,percent Bodipy-positive cells,[1],10.8 ± 3.6%
Cc1ccc(C(=O)Nc2cccc(C(F)(F)F)c2)cc1Nc1nc(-c2cccnc2)nc2c1cnn2C,percent Bodipy-positive cells,[4],13 ± 2.1%
same,percent Bodipy-positive cells,[5],9.49 ± 2.2%
same,percent Bodipy-positive cells,[6],9.58 ± 2.9%
same,percent Bodipy-positive cells,[1],69.8 ± 16%
COc1ccc(-c2cc(=O)c3c(OC)c(OC)c(OC)c(OC)c3o2)cc1OC [Nobiletin],percent Bodipy-positive cells,[3],12.9 ± 3.2%
same,percent Bodipy-positive cells,[1],23.7% and 38.5%
CC(N)=NCc1cccc(CN)c1,percent Bodipy-positive cells,library stock concentration: 20 mM,19.9 ± 5.9%
O=c1cc[nH]c(=O)[nH]1 [Uracil],percent Bodipy-positive cells,[3],17.4 ± 0.88%
same,percent Bodipy-positive cells,[1],35.8 ± 5.7%
O=c1cc[nH]c(=O)[nH]1,percent Bodipy-positive cells,[1],34.95 ± 0.34%
CCCCCCCCCCCCCCCCCC(=O)NCCO [Stearoyl Ethanolamide],percent Bodipy-positive cells,[2],7.82 ± 1.4%
CN1[C@@H]2CC[C@H]1C[C@@H](OC(=O)C(O)c1ccccc1)C2 (mixture of isomers) [DL-Homatropine hydrobromide],percent Bodipy-positive cells,[1],56 ± 2.3%
"CN1[C@@H]2CC[C@H]1C[C@@H](OC(=O)C(O)c1ccccc1)C2 (mixture of isomers) [Homatropine hydrobromide (R,S)]",percent Bodipy-positive cells,,30.6 ± 3.6%
O=[N+]([O-])c1cn2c(n1)OC[C@@H](OCc1ccc(OC(F)(F)F)cc1)C2,percent Bodipy-positive cells,[3],9.68 ± 3.4%
same,percent Bodipy-positive cells,[1],16.5 ± 8.8%
CC(C)[C@@H]1NC(=O)[C@H](Cc2ccccc2)NC(=O)[C@@H](CC(=O)O)NC(=O)CNC(=O)[C@H](CCCN=C(N)N)NC1=O [Cyclo [Arg-Gly-Asp-D-Phe-Val]],percent Bodipy-positive cells,library stock concentration: 8.7 mM,16.3 ± 1.3%
Cn1nnc2c(C(N)=O)ncn2c1=O [Temozolomide],percent Bodipy-positive cells,[3],13.6 ± 1.2%
same,percent Bodipy-positive cells,[1],24.7% and 6.75%
Cn1nnc2c(C(N)=O)ncn2c1=O,percent Bodipy-positive cells,[1],12.9% and 34.2%
COc1ccc(CCC(=O)c2c(O)cc(O[C@@H]3O[C@H](CO)[C@@H](O)[C@H](O)[C@H]3O[C@@H]3O[C@@H](C)[C@H](O)[C@@H](O)[C@H]3O)cc2O)cc1O [Neohesperidin dihydrochalcone],percent Bodipy-positive cells,[1],21.4 ± 9.1%
CC(C)(C)CC(C)(C)c1ccc(OCCOCC[N+](C)(C)Cc2ccccc2)cc1 [Benzethonium Chloride],percent Bodipy-positive cells,[3],20.5 ± 1.2%
same,percent Bodipy-positive cells,[1],98.9 ± 0.73%
CC(C)(C)CC(C)(C)c1ccc(OCCOCC[N+](C)(C)Cc2ccccc2)cc1 [Benzethonium chloride],percent Bodipy-positive cells,,53.9 ± 12%
same,percent Bodipy-positive cells,library stock concentration: 4.5 mM,5.69 ± 3.3%
same,percent Bodipy-positive cells,[1],39.5 ± 4.4%
Nc1nc(NCC2CCC(CNS(=O)(=O)c3cccc4ccccc34)CC2)nc2ccccc12 (stereo not drawn),percent Bodipy-positive cells,[1],96 ± 5.6%
"CCCCCC(=O)CC[C@H]1[C@H](O)CC(=O)[C@@H]1CCCCCCC(=O)O [13,14-dihydro-15-keto Prostaglandin E1]",percent Bodipy-positive cells,[2],16.3 ± 6.8%
CCCCOc1ccc(C(=O)CCN2CCCCC2)cc1 [Dyclonine hydrochloride],percent Bodipy-positive cells,,35.5 ± 4.1%
same,percent Bodipy-positive cells,library stock concentration: 6.1 mM,5.29 ± 0.96%
same,percent Bodipy-positive cells,[1],11.7 ± 3.6%
CCCCOc1ccc(C(=O)CCN2CCCCC2)cc1 [Dyclonine HCl],percent Bodipy-positive cells,[3],8.379 ± 0.019%
same,percent Bodipy-positive cells,[1],22.8 ± 12%
O=C(O)COc1ccc(C(=O)c2cccs2)c(Cl)c1Cl [Tienilic Acid],percent Bodipy-positive cells,[2],9.1 ± 2.5%
C=C1C(=O)O[C@H]2[C@H]1CC/C(C)=C/CC[C@@]1(C)O[C@@H]21 [Parthenolide],percent Bodipy-positive cells,,100%
same,percent Bodipy-positive cells,library stock concentration: 20.1 mM,97.9 ± 3%
C=C1C(=O)O[C@H]2[C@H]1CC/C(C)=C/CC[C@@]1(C)O[C@@H]21 [(-)-Parthenolide],percent Bodipy-positive cells,[3],22 ± 3.3%
same,percent Bodipy-positive cells,[1],98.5 ± 2%
COc1ccc(-c2cc3nccn3c(Nc3ncccc3C(N)=O)n2)cc1OC,percent Bodipy-positive cells,[4],22 ± 1.8%
same,percent Bodipy-positive cells,[5],22.7 ± 13%
same,percent Bodipy-positive cells,[6],35.2 ± 12%
same,percent Bodipy-positive cells,[1],43.1 ± 4.6%
Cc1cc2c(C(=O)NCC(C)c3ccccc3)c(O)c(O)cc2c(O)c1-c1c(C)cc2c(C(=O)NCC(C)c3ccccc3)c(O)c(O)cc2c1O (stereo not drawn) [Sabutoclax],percent Bodipy-positive cells,[3],87 ± 2.5%
same,percent Bodipy-positive cells,[1],75.6 ± 7.8%
COc1ccc(CCn2nnnc2C2(c3ccc(C)cc3)CC2)cc1 [Mephetyl tetrazole],percent Bodipy-positive cells,[1],41.8 ± 17%
COc1ccc(CCC(=O)Nc2nc3ccc(Cl)cc3s2)cc1OC,percent Bodipy-positive cells,[3],40 ± 14%
same,percent Bodipy-positive cells,[1],27.2 ± 3.5%
CC[C@H](C)C(=O)O[C@H]1C[C@H](O)C=C2C=C[C@H](C)[C@H](CC[C@@H]3C[C@@H](O)CC(=O)O3)[C@H]21 [Pravastatin lactone],percent Bodipy-positive cells,library stock concentration: 4.9 mM,10.3 ± 2.8%
Nc1nc(N)c2nc(-c3ccccc3)c(N)nc2n1 [Triamterene],percent Bodipy-positive cells,,25.3 ± 1.3%
same,percent Bodipy-positive cells,[3],12.3 ± 1.6%
same,percent Bodipy-positive cells,library stock concentration: 7.9 mM,26.6 ± 9.1%
same,percent Bodipy-positive cells,[1],32.5% and 24.8% and 35.7%
C=C1CC[C@H](O)C/C1=C/C=C1\CCC[C@]2(C)[C@@H]([C@H](C)/C=C/[C@H](C)C(C)C)CC[C@@H]12 [Calciferol],percent Bodipy-positive cells,,15.5 ± 0.49%

# Source: the supplement of paper PMC9135407
